Results: patent US20230044381A1
No constants are given. Whether binding was seen depends on the method and setting. Binding can be weak; no strength is given.

Target: monkey PD1 on CHO cells (CHO-cynoPD1) (monkey)
Assay: flow cytometry on CHO-cynoPD1 cells

Row | binding | Binder
1 | binds | PD-1-112-C2 (antibody, V domains shown) VH: QVQLQQPGAELVKPGASVKLSCKASGYTFTTYYMYWVKQRPGQGLEWIGGINPSNGGTNFNEKFKSKATLTVDKSSSTAYMQLSSLTSEDSAVYYCTRRDSNYDGGFDYWGQGTTLTVSS VL: DIVLTQSPASLAVSLGQRATISCRASKSVSTSGYSYMHWYQQKPGQPPKLLIYLAYHLESGVPARFSGSGSGTDFTLNIHPVEEEDAATYYCQHSWELPITFGSGTKLEIKR
2 | binds | PD-1-76-C2 (antibody, V domains shown) VH: QIQLVQSGPELKKPGETVKISCKASGYTFTNYGMNWVKQAPGKGLKWMGWINTHTGEPTYADDFKGRFAFSLETSASTAYLQIKNLKNEDVATYFCTKEGEGIGFAYWGQGTLVTVSA VL: DVLMTQTPLSLPVSLGDQASISCRSSQSIVYSNGKTYLEWYLQKPGQSPKLLIYKVSNRFSGVPDRFSGSGSGTDFTLKISRVEAEDLGVYYCFQGSHVPNTFGGGTKLEIKR
